Results deposited as PubChem BioAssay AID1259424 (University of Nebraska Medical Center, 2018)

- Assay: 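Seek colon cancer survival genes behaving like KSR1, using a six-gene signature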 (primary screen)
- Cells: human HCT116 colon cancer cells
- Reagents: siRNA pool against human genes, 50 nM
- Measured: 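Log2 levels of six mRNAs (branched-DNA multiplex), adjusted by two reference genes and the non-targeting median, then scored against the average KSR1 knockdown pattern as Pearson r and euclidean distance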
- Direction: mean correlation with KSR1 profile and KSR1 correlation: higher = expression change more like KSR1 knockdown; mean distance from KSR1 profile: higher = expression change less like KSR1 knockdown
In all, the deposit lists about 14,000 reagents; this is a part drawn at random. 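Higher correlation or smaller distance means closer resemblance to KSR1 loss; control wells, including KSR1 knockdowns, recur on many plates.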 Reagents against one gene are numbered here. The record does not give: the time to read-out.

target gene	reagent no.	mean correlation with KSR1 profile	mean distance from KSR1 profile	KSR1 correlation, replicate 1	KSR1 correlation, replicate 2	KSR1 correlation, replicate 3
KLHL3	1	-0.411	3.27	-0.299	-0.389	-0.604
AHCTF1	1	-0.469	3.17	-0.514	-0.409	-0.559
PELI2	1	0.566	1.35	0.664	0.504	0.575
KLRC4	1	0.0316	1.77	0.00499	-0.0535	0.337
DCTN5	1	0.467	1.96	0.502	0.346	0.0717
USO1	1	0.617	1.59	0.741	0.0403	0.732
PCDHA12	1	0.225	2.48	0.164	-0.13	0.323
BDP1	1	0.163	4.18	0.398	0.293	-0.455
EIF1AY	1	-0.164	1.87	-0.199	-0.0579	-0.0536
DCHS2	1	-0.143	2.74	-0.106	-0.322	-0.0619
MASP1	1	-0.311	1.89	-0.186	-0.0614	-0.32
PI4K2B	1	0.0108	2.1	0.109	0.255	-0.0159
TRIP12	1	0.198	1.64	-0.101	0.289	0.0988
NOL11	1	-0.234	5.77	-0.188	-0.323	-0.264
ATP6V1B2	1	-0.435	5.26	-0.474	-0.47	-0.542
NEU2	1	0.376	1.8	0.387	0.551	0.155
DLGAP5	1	0.056	1.59	0.149	-0.304	0.111
MCM10	1	-0.275	3.41	0.0252	-0.442	-0.302
SIGLEC5	1	0.413	2.81	0.335	0.492	0.546
KCTD9	1	-0.237	2.26	-0.349	0.253	-0.61
ZNF398	1	0.284	1.89	0.439	0.288	0.52
JPH1	1	0.179	1.09	0.159	0.752	0.169
AHNAK	1	0.86	2.24	0.746	0.778	0.848
MRM1	1	0.622	2.27	0.647	0.685	0.527
MAFG	1	0.517	1.19	0.638	0.265	0.646
MAFG	2	0.118	2.35	0.133	0.0364	-0.0574

Next part (4 carried over from the part before).
target gene	reagent no.	mean correlation with KSR1 profile	mean distance from KSR1 profile	KSR1 correlation, replicate 1	KSR1 correlation, replicate 2	KSR1 correlation, replicate 3
AHNAK	1	0.86	2.24	0.746	0.778	0.848
MRM1	1	0.622	2.27	0.647	0.685	0.527
MAFG	1	0.517	1.19	0.638	0.265	0.646
MAFG	2	0.118	2.35	0.133	0.0364	-0.0574
KATNB1	1	-0.238	1.56	-0.138	-0.416	-0.169
LTAP1	1	0.178	0.866	-0.268	0.15	0.0727
SLC25A5	1	-0.653	2.54	-0.69	-0.689	-0.67
LARS2	1	-0.17	2.35	0.0867	-0.102	-0.469
CSF2	1	0.264	1.46	0.337	0.402	0.252
GALNT17	1	-0.168	1.53	-0.0694	-0.649	-0.586
PER1	1	-0.0626	3.75	0.0242	-0.036	-0.258
EIF3M	1	0.669	3.31	0.669	0.875	0.278
KRT81	1	-0.237	1.58	-0.194	-0.487	-0.421
TASOR	1	-0.116	3.41	-0.0675	-0.162	-0.0549
HLA-A	1	-0.196	3.2	-0.171	-0.256	-0.279
IL2	1	0.29	1.72	0.263	0.306	0.312
TPRA1	1	0.319	2.07	0.227	0.376	0.278
CLPB	1	0.756	1.88	0.534	0.549	0.801
KDELR3	1	-0.519	3.41	-0.454	-0.534	-0.69
GCKR	1	0.482	2.24	0.645	0.62	0.315
PDHX	1	0.296	2.84	0.41	0.131	0.327
RPH3A	1	-0.333	2.36	-0.363	-0.335	-0.26
GPR20	1	0.612	2.04	0.592	0.635	0.463
ADAM3B	1	-0.0526	2.68	-0.304	-0.13	0.131
CYP7A1	1	-0.00614	2.82	0.195	-0.45	0.0647
ABCA10	1	0.138	1.2	0.234	0.174	0.207
TBC1D13	1	-0.108	2.32	-0.00632	-0.287	-0.124
FAM3A	1	-0.018	1.73	0.142	-0.0219	-0.169
